Data taken from ChEMBL document CHEMBL3988442, “University of Dundee, Small-Polar-MMV Screening Library” (2021).

Values are the deposited “Percent Effect”, in %. The record does not define 0% and 100%; most values in the screen are far below 50% and negative numbers occur (in some assays of this library far below -100). Compounds were drawn at random from those tested, without regard to their results.

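Whole-cell assay for inhibitors of Mycobacterium tuberculosis growth, labelled Cornell in the record; the read-out is not stated. The concentration is filed as 10 mM, unlikely as a test dose, so the dose is not known. Higher means stronger inhibition (inferred from two other growth screens of the library). About 53,000 compounds were tested under these conditions; 1.7% (about 900) showed 50% or more at least once.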

SMILES,Percent Effect
CCS(=O)(=O)c1ncc(CN(C)Cc2ccccc2Cl)n1CCOC,6.225
O=C(O)C(F)(F)F.[H][C@@]12CCC(=O)N(CCOC)[C@]1([H])CCN2Cc1cccc(C#N)c1,18.51
CN(C)[C@H]1C[C@@H](Cc2cc(-c3ccc(F)cc3)on2)C1(C)C,-7.957
O=C(O)C(F)(F)F.O=C(O)C(F)(F)F.[H][C@@]12COC[C@]1(COc1cccnc1)CN(Cc1ccccc1OC)C2,15.27
COc1ccccc1C(=O)N(Cc1nc(C)cs1)CC1CCCO1 (centres undefined),17.51
CC(C)NC(=O)CC1COC2(CCN(Cc3ccsc3)CC2)C1.O=C(O)C(F)(F)F (centres undefined),16.28
Cc1nc(CN2CCOCC23CCN(c2ccc(C#N)cc2)CC3)cs1.O=C(O)C(F)(F)F,27.73
O=C(NCC1COCc2c(-c3ccncc3)nnn2C1)[C@H]1CCCO1.O=C(O)C(F)(F)F (some centres undefined),-4.921
COc1ccc(Oc2ncccc2NC(=O)N2CCOCC2C)cc1 (centres undefined),8.847
CN1C[C@@H](N)C[C@H]1c1nc(-c2ccc3c(c2)OCO3)no1,-19.23
CCOc1cccc(NC(=O)c2cscn2)n1,4.594
Cc1cccn2cc(CNCc3cccc4c3OCCCO4)nc12,17.31
CC(C)(C)c1ncc2c(n1)CN(C(=O)c1ccc3[nH]cnc3c1)C2,29.72
O=C(O)C(F)(F)F.[H][C@]12CCN(Cc3ccc(CC)o3)C[C@@]1([H])OCCN(S(C)(=O)=O)C2,-2.55
[H][C@@]12C[C@H](C(=O)N3CCOCC3)[C@@]([H])(CN(C(=O)NCC3CCCCC3)C1)O2,-33.88
CC1c2ncc(COCc3ccccn3)n2CCN1C1CCCC1.O=C(O)C(F)(F)F.O=C(O)C(F)(F)F (centres undefined),6.638
O=C(O)C(F)(F)F.[H][C@]12CCN(S(=O)(=O)N(C)C)CC[C@@]1([H])S(=O)(=O)CCN2CC(C)C,16.34
Cc1ccccc1SC1CCN(C(=O)CCCS(N)(=O)=O)CC1,41.94
C=C(C)CN(CC)S(=O)(=O)c1ccccc1C#N,-14.71
[H][C@@]12COC[C@]1(CNS(C)(=O)=O)CN(C(=O)c1ccncn1)C2,-9.696
CN(C)CCOc1cc(NC(=O)COCC(F)(F)F)ccn1,-29.24
O=C(O)C(F)(F)F.[H][C@@]12COC[C@]1(CNC(=O)c1ccccc1)CN(Cc1cnn(C)c1)C2,20.65
CN1CCOC(CNCCOc2cccc(C#N)c2)C1 (centres undefined),-24.99
CC(C)N1CCC(N2CCN(C3CCCCC3)CC2CCO)CC1 (centres undefined),30.41
Fc1cc(Oc2ccc(C(F)(F)F)cn2)cc(F)c1CN1CCCC1,17.52
COCCN(C(=O)c1cnccn1)c1nc2c(s1)CCc1c-2cnn1C,-17.97
Cc1cc(CN(C)CC2CCCN(CCc3ccc(Cl)cc3)C2)[nH]n1 (centres undefined),20.2
Cc1cc(F)ccc1CN1CCCC2(C1)OCCO2,13.61
O=C(NCCN1CCOCC1)c1ccnn1-c1ccc2ccccn12.O=C(O)C(F)(F)F,-32.8
CCCc1cc(NC2CCc3ncnn3C2)n2ncnc2n1 (centres undefined),-20.82
N#Cc1ccccc1CN1CCCCC1Cn1cncn1 (centres undefined),-25.58
CN(C)C(=O)c1c[nH]nc1C1CCN(S(=O)(=O)c2ccc(Cl)cc2)CC1,-22.62
O=C(CCc1ccc(-n2cnnn2)cc1)Nc1nncs1,14.63
CN(CCO)C(=O)Nc1ccn(-c2cccc(C(F)(F)F)c2)n1,21.36
[H][C@]12CN(CC3CC3)C(=O)[C@@]1([H])CN(c1ncc(F)cn1)C2,-1.018
CCn1c(N)nc2cc(C(=O)NCCc3ccncc3)cnc21,0.0951
Cc1nccc(N2CCC(=O)N(CC3CC3)C(C(C)C)C2)n1 (centres undefined),25.07
CC1(C2CCN(CCCC(=O)O)CC2)CN(Cc2ccccc2)C(=O)O1 (centres undefined),-19.81
O=C(C1CC1)N1C[C@@H](F)[C@@H](OCc2nc3ccccc3o2)C1,6.48
Cc1nc(C(C)N(C)Cc2nc(CCC(C)C)no2)c(C)s1 (centres undefined),20.28
Cn1cc(-c2cnc(N3CCOCC3)nc2)cc1C(=O)O,44.3
O=C(NCC(O)c1ccc(F)c(F)c1)c1cccnc1OCC(F)(F)F (centres undefined),44.72
CCN(Cc1ccncc1)C1CCN(c2ccccc2)C1=O (centres undefined),-11.78
Cc1cc(C)nc(N2CCC(c3cc(CCO)[nH]n3)C2)n1 (centres undefined),21.68
CS(=O)(=O)NCCNc1ncnc2cccc(F)c12,9.733
CS(=O)(=O)c1ccc(C(=O)N2CCCC(n3cncn3)C2)o1 (centres undefined),-50.68
CCC(CC)NC(=O)CN1CCN(C(=O)N(C)C)CC1,-75.39
Clc1cccc(-c2cccc(N3CCC(NC4CCOCC4)CC3)c2)c1,72.63
Cc1ccc(CNC(=O)C2CCN(C(=O)c3ccccc3)CC2)n1C,-5.601
Cc1cc(C2CCCN2Cc2ccc(C(=O)Nc3nccs3)cc2)on1 (centres undefined),-3.487
Cc1ccn(CCNc2ncnc3c2CCN(S(C)(=O)=O)CC3)n1,7.228
CNC(=O)c1cccc(NC(=O)NCc2ccccc2)c1C,-2.621
Cc1ccc(CNCCC(O)(c2nccn2C)C(F)(F)F)o1 (centres undefined),-4.229
CCCSCC(=O)Nc1ncn(CC(=O)N2CCCCCC2)n1,11.72
CCc1cnc(CN2CCC(N(C)Cc3noc(C4CC4)n3)C2)o1 (centres undefined),-4.677
O=C(O)C1CCCN1c1nc(C2CC2)cc(C(F)(F)F)n1 (centres undefined),4.747
Cc1cc(N2CCN(C(=O)CCc3scnc3C)CC2)cc(C)n1,9.63
CCOc1cccc(NC(=O)c2cc[nH]n2)n1,19.07
Cc1cnn(C2CN(Cc3nc(C(C)(C)C)no3)C2)c1,-9.455
CNC(=O)CN(C)c1cncc(OCC(C)C)n1,22.27
O=C(NCCCN1CCOCC1)C(OC1CCCC1)c1ccccc1 (centres undefined),0.3434
CN1CC(=O)N(c2ccsc2)CC12CCN(S(=O)(=O)C1CC1)C2.O=C(O)C(F)(F)F (centres undefined),6.764

For reference, 4 entries once more:

SMILES	Percent Effect
O=C(C1CC1)N1C[C@@H](F)[C@@H](OCc2nc3ccccc3o2)C1	6.48
O=C(O)C(F)(F)F.[H][C@@]12CCC(=O)N(CCOC)[C@]1([H])CCN2Cc1cccc(C#N)c1	18.51
N#Cc1ccccc1CN1CCCCC1Cn1cncn1 (centres undefined)	-25.58
O=C(NCC(O)c1ccc(F)c(F)c1)c1cccnc1OCC(F)(F)F (centres undefined)	44.72